For this assay, the target named is T1, endogenous Stau2 (HeLa cells) (human (endogenous in HeLa)) (UniProt Q9NUL3).
T1 sequence: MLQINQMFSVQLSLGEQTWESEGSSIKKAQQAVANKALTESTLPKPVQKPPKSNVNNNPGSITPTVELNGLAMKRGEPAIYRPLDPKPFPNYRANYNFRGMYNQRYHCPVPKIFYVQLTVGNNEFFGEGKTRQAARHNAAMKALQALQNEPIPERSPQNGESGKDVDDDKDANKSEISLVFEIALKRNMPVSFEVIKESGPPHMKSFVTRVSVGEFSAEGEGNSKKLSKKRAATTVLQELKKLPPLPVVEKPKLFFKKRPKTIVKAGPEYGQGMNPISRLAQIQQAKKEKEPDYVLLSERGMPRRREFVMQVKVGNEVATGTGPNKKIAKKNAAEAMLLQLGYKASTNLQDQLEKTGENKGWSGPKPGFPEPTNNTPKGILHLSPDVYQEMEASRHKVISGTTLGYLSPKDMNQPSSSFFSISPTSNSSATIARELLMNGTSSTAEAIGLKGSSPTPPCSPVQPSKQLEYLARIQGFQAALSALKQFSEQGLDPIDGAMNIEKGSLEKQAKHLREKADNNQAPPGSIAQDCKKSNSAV
Nature of the assay: co-IP; HeLa lysate treated with RNase A (20 ug/ml); rabbit anti-hStau2 antibody or rabbit IgG, Protein G Sepharose; 20 mM Tris-HCl pH 7.5, 150 mM NaCl, 1 mM DTT, 0.5% Tween 20; Western blotting.

These are yes or no findings as the source states them, for the method shown. Binding seen in cells or lysates may run through a third protein. Some results given as binding are weak or reduced against the parent protein; the word gives no strength.

B1: Upf1, endogenous in HeLa cells (protein, UniProt Q92900 1-1129)
chain: MSVEAYGPSSQTLTFLDTEEAELLGADTQGSEFEFTDFTLPSQTQTPPGGPGGPGGGGAGGPGGAGAGAAAGQLDAQVGPEGILQNGAVDDSVAKTSQLLAELNFEEDEEDTYYTKDLPIHACSYCGIHDPACVVYCNTSKKWFCNGRGNTSGSHIVNHLVRAKCKEVTLHKDGPLGETVLECYNCGCRNVFLLGFIPAKADSVVVLLCRQPCASQSSLKDINWDSSQWQPLIQDRCFLSWLVKIPSEQEQLRARQITAQQINKLEELWKENPSATLEDLEKPGVDEEPQHVLLRYEDAYQYQNIFGPLVKLEADYDKKLKESQTQDNITVRWDLGLNKKRIAYFTLPKTDSGNEDLVIIWLRDMRLMQGDEICLRYKGDLAPLWKGIGHVIKVPDNYGDEIAIELRSSVGAPVEVTHNFQVDFVWKSTSFDRMQSALKTFAVDETSVSGYIYHKLLGHEVEDVIIKCQLPKRFTAQGLPDLNHSQVYAVKTVLQRPLSLIQGPPGTGKTVTSATIVYHLARQGNGPVLVCAPSNIAVDQLTEKIHQTGLKVVRLCAKSREAIDSPVSFLALHNQIRNMDSMPELQKLQQLKDETGELSSADEKRYRALKRTAERELLMNADVICCTCVGAGDPRLAKMQFRSILIDESTQATEPECMVPVVLGAKQLILVGDHCQLGPVVMCKKAAKAGLSQSLFERLVVLGIRPIRLQVQYRMHPALSAFPSNIFYEGSLQNGVTAADRVKKGFDFQWPQPDKPMFFYVTQGQEEIASSGTSYLNRTEAANVEKITTKLLKAGAKPDQIGIITPYEGQRSYLVQYMQFSGSLHTKLYQEVEIASVDAFQGREKDFIILSCVRANEHQGIGFLNDPRRLNVALTRARYGVIIVGNPKALSKQPLWNHLLNYYKEQKVLVEGPLNNLRESLMQFSKPRKLVNTINPGARFMTTAMYDAREAIIPGSVYDRSSQGRPSSMYFQTHDQIGMISAGPSHVAAMNIPIPFNLVMPPMPPPGYFGQANGPAAGRGTPKGKTGRGGRQKNRFGLPGPSQTNLPNSQASQDVASQPFSQGALTQGYISMSQPSQMSQPGLSQPELSQDSYLGDEFKSQIDVALSQDSTYQGERAYQHGGVTGLSQY
In the case of B1, the binding entry is given as “binds”.

B2: Mov10, endogenous in HeLa cells (protein, UniProt Q9HCE1 1-1003)
chain: MPSKFSCRQLREAGQCFESFLVVRGLDMETDRERLRTIYNRDFKISFGTPAPGFSSMLYGMKIANLAYVTKTRVRFFRLDRWADVRFPEKRRMKLGSDISKHHKSLLAKIFYDRAEYLHGKHGVDVEVQGPHEARDGQLLIRLDLNRKEVLTLRLRNGGTQSVTLTHLFPLCRTPQFAFYNEDQELPCPLGPGECYELHVHCKTSFVGYFPATVLWELLGPGESGSEGAGTFYIARFLAAVAHSPLAAQLKPMTPFKRTRITGNPVVTNRIEEGERPDRAKGYDLELSMALGTYYPPPRLRQLLPMLLQGTSIFTAPKEIAEIKAQLETALKWRNYEVKLRLLLHLEELQMEHDIRHYDLESVPMTWDPVDQNPRLLTLEVPGVTESRPSVLRGDHLFALLSSETHQEDPITYKGFVHKVELDRVKLSFSMSLLSRFVDGLTFKVNFTFNRQPLRVQHRALELTGRWLLWPMLFPVAPRDVPLLPSDVKLKLYDRSLESNPEQLQAMRHIVTGTTRPAPYIIFGPPGTGKTVTLVEAIKQVVKHLPKAHILACAPSNSGADLLCQRLRVHLPSSIYRLLAPSRDIRMVPEDIKPCCNWDAKKGEYVFPAKKKLQEYRVLITTLITAGRLVSAQFPIDHFTHIFIDEAGHCMEPESLVAIAGLMEVKETGDPGGQLVLAGDPRQLGPVLRSPLTQKHGLGYSLLERLLTYNSLYKKGPDGYDPQFITKLLRNYRSHPTILDIPNQLYYEGELQACADVVDRERFCRWAGLPRQGFPIIFHGVMGKDEREGNSPSFFNPEEAATVTSYLKLLLAPSSKKGKARLSPRSVGVISPYRKQVEKIRYCITKLDRELRGLDDIKDLKVGSVEEFQGQERSVILISTVRSSQSFVQLDLDFNLGFLKNPKRFNVAVTRAKALLIIVGNPLLLGHDPDWKVFLEFCKENGGYTGCPFPAKLDLQQGQNLLQGLSKLSPSTSGPHSHDYLPQEREGEGGLSLQVEPEWRNEL
In the case of B2, the binding result is on record as “binds”.

The values above are taken from PMC3226675.
